These are yes or no findings as the source states them, for the method shown. For some assays here: In cells and extracts the contact can be indirect. Some binding calls cover weakened binding; strength is not graded here. Sequences can lack the tags named with a protein.
Tests used:
[1] = target: T1, FLAG-SHLD3^C (residues 126-250) (human) (UniProt Q6ZNX1); test: co-IP + pull-down
T1 sequence: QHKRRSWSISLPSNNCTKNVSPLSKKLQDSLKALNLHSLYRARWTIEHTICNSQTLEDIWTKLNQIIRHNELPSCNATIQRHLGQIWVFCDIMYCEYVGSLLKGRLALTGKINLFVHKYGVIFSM

The chains behind the UniProt entries cited, without tags or fusion partners.
UniProt Q9UI95: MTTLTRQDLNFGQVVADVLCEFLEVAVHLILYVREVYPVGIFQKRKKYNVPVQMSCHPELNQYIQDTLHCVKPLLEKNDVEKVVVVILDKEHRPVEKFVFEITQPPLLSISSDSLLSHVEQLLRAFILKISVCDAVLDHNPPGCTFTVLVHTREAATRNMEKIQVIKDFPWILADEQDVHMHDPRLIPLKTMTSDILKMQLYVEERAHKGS

[2] = target: T2, FLAG-SHLD3 (full-length) (human) (UniProt Q6ZNX1); test: co-IP + pull-down
T2 sequence: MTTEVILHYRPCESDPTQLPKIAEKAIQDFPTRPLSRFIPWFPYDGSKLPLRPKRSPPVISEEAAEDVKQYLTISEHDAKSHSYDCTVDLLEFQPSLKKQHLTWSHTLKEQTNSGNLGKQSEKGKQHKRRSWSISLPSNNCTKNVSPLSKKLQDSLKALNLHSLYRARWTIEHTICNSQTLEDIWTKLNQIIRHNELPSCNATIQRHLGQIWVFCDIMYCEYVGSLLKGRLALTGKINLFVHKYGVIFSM

[3] = target: T3, FLAG-SHLD3^N (residues 2-125) (human) (UniProt Q6ZNX1); test: co-IP + pull-down
T3 sequence: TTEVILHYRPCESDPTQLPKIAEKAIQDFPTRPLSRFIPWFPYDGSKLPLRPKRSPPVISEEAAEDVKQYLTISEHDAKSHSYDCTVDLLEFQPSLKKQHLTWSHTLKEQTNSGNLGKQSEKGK

[4] = target: T4, mCherry-LacR-RIF1 (174-567) (human) (UniProt Q5UIP0); test: LacR/LacO chromatin recruitment assay
T4 sequence: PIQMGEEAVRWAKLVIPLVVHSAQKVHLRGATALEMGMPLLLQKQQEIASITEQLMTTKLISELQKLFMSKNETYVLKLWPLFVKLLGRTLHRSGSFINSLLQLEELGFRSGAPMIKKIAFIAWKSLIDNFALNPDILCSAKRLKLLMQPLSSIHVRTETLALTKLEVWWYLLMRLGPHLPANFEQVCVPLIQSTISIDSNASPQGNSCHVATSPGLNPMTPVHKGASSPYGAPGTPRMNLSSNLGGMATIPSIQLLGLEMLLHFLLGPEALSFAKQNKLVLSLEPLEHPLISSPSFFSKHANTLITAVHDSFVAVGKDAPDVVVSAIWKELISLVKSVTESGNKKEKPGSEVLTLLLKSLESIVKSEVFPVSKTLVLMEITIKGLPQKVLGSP

[5] = target: T5, mCherry-LacR-RIF1^N (residues 1-967) (human) (UniProt Q5UIP0); test: LacR/LacO chromatin recruitment assay
T5 sequence: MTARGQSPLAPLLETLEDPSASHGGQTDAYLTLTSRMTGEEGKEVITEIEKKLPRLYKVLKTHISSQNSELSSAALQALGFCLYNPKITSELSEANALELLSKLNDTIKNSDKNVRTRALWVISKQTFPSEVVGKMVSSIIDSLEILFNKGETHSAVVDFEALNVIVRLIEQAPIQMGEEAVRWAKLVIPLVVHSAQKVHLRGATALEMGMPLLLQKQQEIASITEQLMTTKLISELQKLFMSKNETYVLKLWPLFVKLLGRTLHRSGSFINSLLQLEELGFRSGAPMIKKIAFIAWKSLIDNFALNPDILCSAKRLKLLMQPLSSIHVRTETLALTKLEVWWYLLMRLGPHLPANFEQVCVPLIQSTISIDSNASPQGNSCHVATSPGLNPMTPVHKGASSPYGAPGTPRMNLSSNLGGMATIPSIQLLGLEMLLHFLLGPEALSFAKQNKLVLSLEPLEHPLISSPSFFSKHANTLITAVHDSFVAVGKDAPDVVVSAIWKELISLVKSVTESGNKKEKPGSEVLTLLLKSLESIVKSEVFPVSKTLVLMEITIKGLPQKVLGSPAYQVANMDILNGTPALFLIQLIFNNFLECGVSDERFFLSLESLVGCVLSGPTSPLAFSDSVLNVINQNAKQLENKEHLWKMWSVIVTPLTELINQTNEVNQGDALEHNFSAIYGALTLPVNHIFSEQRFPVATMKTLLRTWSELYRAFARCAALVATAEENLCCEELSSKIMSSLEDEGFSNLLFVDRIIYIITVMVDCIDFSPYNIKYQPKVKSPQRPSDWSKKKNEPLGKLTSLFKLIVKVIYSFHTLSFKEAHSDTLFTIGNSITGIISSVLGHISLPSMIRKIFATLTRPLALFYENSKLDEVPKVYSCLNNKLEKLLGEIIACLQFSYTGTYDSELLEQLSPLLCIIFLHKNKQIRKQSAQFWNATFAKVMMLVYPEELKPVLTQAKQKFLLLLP

[6] = target: T6, mCherry-LacR-RIF1 (1-567) (human) (UniProt Q5UIP0); test: LacR/LacO chromatin recruitment assay
T6 sequence: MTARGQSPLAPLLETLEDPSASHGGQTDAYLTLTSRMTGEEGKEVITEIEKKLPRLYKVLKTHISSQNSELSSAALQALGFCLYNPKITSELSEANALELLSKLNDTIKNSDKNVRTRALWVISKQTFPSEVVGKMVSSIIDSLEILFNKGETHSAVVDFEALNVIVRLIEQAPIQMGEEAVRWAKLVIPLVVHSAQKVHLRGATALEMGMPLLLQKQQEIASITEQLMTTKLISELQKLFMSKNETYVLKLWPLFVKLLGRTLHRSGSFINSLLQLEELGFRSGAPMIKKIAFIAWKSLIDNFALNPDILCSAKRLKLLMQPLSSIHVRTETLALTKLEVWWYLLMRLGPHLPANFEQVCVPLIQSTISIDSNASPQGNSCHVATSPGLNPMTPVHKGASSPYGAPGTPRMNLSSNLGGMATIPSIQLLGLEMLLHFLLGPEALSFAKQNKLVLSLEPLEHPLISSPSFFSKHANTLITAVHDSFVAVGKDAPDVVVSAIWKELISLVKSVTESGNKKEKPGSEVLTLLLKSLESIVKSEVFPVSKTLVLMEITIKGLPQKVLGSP

[7] = target: T7, mCherry-LacR-RIF1^N (residues 1-967) E70A (human) (UniProt Q5UIP0); test: LacR/LacO chromatin recruitment assay
T7 sequence: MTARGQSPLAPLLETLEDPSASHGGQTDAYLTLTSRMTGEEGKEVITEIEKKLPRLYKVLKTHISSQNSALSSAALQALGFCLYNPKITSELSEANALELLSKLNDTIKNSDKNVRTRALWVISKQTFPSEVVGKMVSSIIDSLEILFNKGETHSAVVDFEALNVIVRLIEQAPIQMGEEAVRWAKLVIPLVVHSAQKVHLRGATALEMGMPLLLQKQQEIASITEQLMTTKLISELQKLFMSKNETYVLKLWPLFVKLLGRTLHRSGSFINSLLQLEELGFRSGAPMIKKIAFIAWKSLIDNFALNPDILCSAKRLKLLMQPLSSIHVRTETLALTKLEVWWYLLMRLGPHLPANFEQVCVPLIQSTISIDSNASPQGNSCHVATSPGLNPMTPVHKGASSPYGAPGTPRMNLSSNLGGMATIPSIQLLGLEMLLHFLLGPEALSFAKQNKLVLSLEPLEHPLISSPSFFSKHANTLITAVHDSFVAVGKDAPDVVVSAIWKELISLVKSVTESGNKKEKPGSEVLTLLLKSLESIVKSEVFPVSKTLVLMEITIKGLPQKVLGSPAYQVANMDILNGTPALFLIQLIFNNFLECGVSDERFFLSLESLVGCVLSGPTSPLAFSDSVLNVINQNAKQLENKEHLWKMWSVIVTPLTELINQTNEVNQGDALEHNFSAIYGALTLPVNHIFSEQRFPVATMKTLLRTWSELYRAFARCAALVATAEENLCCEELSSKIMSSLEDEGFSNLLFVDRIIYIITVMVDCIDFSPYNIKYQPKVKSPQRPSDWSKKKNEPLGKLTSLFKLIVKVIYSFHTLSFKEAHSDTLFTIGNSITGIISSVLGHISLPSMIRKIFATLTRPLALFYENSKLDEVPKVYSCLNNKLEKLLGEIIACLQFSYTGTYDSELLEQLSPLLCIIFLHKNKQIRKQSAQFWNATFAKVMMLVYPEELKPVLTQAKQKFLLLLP

[8] = target: T8, mCherry-LacR-RIF1^N R36D (human) (UniProt Q5UIP0); test: LacR/LacO chromatin recruitment assay
T8 sequence: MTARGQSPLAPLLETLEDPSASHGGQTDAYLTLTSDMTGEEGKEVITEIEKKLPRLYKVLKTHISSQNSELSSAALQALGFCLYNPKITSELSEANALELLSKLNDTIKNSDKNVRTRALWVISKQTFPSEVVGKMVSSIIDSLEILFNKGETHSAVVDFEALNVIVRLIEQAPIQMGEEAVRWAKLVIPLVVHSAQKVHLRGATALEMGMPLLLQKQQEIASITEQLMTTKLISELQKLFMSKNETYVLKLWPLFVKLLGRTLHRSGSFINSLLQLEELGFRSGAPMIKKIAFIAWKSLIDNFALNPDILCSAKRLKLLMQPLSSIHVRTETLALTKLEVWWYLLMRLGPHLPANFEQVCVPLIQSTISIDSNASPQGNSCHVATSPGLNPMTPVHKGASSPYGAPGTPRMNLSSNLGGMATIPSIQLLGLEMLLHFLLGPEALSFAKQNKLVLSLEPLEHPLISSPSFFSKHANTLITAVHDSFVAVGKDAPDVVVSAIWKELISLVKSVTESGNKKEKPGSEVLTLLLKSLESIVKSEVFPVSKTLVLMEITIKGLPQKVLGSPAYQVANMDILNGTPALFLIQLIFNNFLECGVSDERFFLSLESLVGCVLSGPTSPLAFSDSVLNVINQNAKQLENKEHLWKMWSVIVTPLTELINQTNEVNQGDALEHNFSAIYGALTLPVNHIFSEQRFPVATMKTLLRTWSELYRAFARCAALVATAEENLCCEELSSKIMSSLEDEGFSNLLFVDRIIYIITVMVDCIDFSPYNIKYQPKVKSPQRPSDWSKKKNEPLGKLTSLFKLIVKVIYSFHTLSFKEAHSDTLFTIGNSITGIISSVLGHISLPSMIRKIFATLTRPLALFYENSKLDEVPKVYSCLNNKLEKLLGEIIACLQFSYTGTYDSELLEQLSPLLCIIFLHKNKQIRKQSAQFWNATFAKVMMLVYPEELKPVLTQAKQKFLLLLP

6xHis-REV7 (from UniProt Q9UI95 1-211)
binding [1]: no binding | binding [2]: binds | binding [3]: binds

B1: eGFP-SHLD3 (residues 2-250) (protein, UniProt Q6ZNX1 2-250)
chain: TTEVILHYRPCESDPTQLPKIAEKAIQDFPTRPLSRFIPWFPYDGSKLPLRPKRSPPVISEEAAEDVKQYLTISEHDAKSHSYDCTVDLLEFQPSLKKQHLTWSHTLKEQTNSGNLGKQSEKGKQHKRRSWSISLPSNNCTKNVSPLSKKLQDSLKALNLHSLYRARWTIEHTICNSQTLEDIWTKLNQIIRHNELPSCNATIQRHLGQIWVFCDIMYCEYVGSLLKGRLALTGKINLFVHKYGVIFSM
binding [4]: no binding | binding [5]: binds | binding [6]: binds | binding [7]: binds

B2: eGFP-SHLD3^C D216R (domain or fragment, UniProt Q6ZNX1 126-250)
chain: QHKRRSWSISLPSNNCTKNVSPLSKKLQDSLKALNLHSLYRARWTIEHTICNSQTLEDIWTKLNQIIRHNELPSCNATIQRHLGQIWVFCRIMYCEYVGSLLKGRLALTGKINLFVHKYGVIFSM
binding [8]: binds

Reference: doi:10.1101/2023.01.12.523815
